Data from article PMC3934975.
Results are given in words; binding and its absence hold for the method and conditions named. Some entries that bind do so weakly or less than the wild type. Where a sequence is shown, tags or fusion partners need not be part of it.

T1: GST-Phg2 (amino acids 207-1159 of Phg2) (D. discoideum) (UniProt Q54QQ1)
T1 sequence: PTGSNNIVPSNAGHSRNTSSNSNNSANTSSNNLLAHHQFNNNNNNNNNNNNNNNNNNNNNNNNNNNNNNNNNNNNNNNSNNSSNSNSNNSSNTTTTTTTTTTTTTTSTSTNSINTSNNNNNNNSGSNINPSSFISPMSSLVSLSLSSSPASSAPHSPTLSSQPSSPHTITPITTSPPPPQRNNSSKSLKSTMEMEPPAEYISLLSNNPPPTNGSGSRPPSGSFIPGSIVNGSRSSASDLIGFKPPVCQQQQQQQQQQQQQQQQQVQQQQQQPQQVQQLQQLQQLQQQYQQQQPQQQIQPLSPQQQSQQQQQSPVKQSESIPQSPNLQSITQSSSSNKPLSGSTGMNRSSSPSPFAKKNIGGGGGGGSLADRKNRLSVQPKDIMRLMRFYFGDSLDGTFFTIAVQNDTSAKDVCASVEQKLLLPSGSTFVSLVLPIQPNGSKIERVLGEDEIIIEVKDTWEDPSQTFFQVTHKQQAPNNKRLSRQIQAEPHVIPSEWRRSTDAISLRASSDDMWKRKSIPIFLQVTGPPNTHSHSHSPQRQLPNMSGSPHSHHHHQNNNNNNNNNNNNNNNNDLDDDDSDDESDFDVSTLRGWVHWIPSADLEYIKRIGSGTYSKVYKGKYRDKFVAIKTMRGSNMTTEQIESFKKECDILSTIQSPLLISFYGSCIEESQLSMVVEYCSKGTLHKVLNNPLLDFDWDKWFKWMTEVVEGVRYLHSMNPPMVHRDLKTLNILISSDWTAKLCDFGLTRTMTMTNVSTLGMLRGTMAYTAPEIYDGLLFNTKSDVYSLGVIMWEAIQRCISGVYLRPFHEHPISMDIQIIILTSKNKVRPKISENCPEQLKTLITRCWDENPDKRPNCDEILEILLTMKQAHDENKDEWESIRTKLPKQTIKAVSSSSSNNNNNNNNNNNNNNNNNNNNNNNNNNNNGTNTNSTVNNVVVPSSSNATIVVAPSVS

T2: Myc-PTP3 (protein tyrosine phosphatase 3) (D. discoideum) (UniProt P54637)
T2 sequence: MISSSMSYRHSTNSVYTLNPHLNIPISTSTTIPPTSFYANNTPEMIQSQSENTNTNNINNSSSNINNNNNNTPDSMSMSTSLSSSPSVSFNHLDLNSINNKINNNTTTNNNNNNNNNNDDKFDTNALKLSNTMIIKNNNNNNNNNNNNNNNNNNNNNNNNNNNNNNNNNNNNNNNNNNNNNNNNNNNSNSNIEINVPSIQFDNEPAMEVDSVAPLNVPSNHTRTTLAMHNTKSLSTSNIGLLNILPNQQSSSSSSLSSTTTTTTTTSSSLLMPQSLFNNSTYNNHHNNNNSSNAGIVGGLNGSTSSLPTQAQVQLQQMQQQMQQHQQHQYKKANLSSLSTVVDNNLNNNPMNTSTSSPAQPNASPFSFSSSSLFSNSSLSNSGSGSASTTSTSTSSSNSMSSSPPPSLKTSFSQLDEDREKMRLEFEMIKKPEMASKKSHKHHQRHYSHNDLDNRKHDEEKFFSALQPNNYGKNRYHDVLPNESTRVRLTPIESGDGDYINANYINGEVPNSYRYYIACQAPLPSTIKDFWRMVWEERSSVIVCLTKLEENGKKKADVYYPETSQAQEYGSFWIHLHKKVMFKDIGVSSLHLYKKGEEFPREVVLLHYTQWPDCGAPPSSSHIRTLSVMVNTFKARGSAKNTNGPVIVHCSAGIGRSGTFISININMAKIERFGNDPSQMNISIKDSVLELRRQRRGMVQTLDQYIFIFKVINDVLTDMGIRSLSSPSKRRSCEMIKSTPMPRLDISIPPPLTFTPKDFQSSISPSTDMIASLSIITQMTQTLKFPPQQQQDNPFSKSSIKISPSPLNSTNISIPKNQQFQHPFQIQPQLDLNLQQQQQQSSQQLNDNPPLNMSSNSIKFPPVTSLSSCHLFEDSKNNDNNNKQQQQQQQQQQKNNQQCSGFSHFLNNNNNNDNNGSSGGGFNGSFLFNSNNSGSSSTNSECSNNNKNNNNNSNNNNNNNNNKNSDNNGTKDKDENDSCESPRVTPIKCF


Tests used:
[1] = molecular target: T1, GST-Phg2 (amino acids 207-1159 of Phg2) (D. discoideum); experiment: pull-down; GST-Phg2 or GST on glutathione agarose beads; Myc-PTP3 immunopurified from phg2- cells and eluted by a pH shift (50 mM glycine, pH 2.8); pull-down buffer 20 mM Hepes/NaOH pH 7.4, 10 mM MgCl2, 0.02% NP-40, 30 mM NaCl, 1 mM DTT, 0.2 mM ATP; Western blot; both purified
[2] = molecular target: T2, Myc-PTP3 (protein tyrosine phosphatase 3) (D. discoideum); experiment: pull-down; reverse approach: Myc-PTP3 held on anti-Myc (9E10) Dynabeads Protein G; 5-10 ug GST-Phg2 or GST eluted from glutathione beads added in pull-down buffer (20 mM Hepes/NaOH pH 7.4, 10 mM MgCl2, 0.02% NP-40, 30 mM NaCl, 1 mM DTT, 0.2 mM ATP), 2 h at 4°C; Western blot; both purified

binding [1]	binding [2]	Binder
binds	–	Myc-PTP3 (protein tyrosine phosphatase 3) (enzyme, UniProt P54637 1-990) MISSSMSYRHSTNSVYTLNPHLNIPISTSTTIPPTSFYANNTPEMIQSQSENTNTNNINNSSSNINNNNNNTPDSMSMSTSLSSSPSVSFNHLDLNSINNKINNNTTTNNNNNNNNNNDDKFDTNALKLSNTMIIKNNNNNNNNNNNNNNNNNNNNNNNNNNNNNNNNNNNNNNNNNNNNNNNNNNNSNSNIEINVPSIQFDNEPAMEVDSVAPLNVPSNHTRTTLAMHNTKSLSTSNIGLLNILPNQQSSSSSSLSSTTTTTTTTSSSLLMPQSLFNNSTYNNHHNNNNSSNAGIVGGLNGSTSSLPTQAQVQLQQMQQQMQQHQQHQYKKANLSSLSTVVDNNLNNNPMNTSTSSPAQPNASPFSFSSSSLFSNSSLSNSGSGSASTTSTSTSSSNSMSSSPPPSLKTSFSQLDEDREKMRLEFEMIKKPEMASKKSHKHHQRHYSHNDLDNRKHDEEKFFSALQPNNYGKNRYHDVLPNESTRVRLTPIESGDGDYINANYINGEVPNSYRYYIACQAPLPSTIKDFWRMVWEERSSVIVCLTKLEENGKKKADVYYPETSQAQEYGSFWIHLHKKVMFKDIGVSSLHLYKKGEEFPREVVLLHYTQWPDCGAPPSSSHIRTLSVMVNTFKARGSAKNTNGPVIVHCSAGIGRSGTFISININMAKIERFGNDPSQMNISIKDSVLELRRQRRGMVQTLDQYIFIFKVINDVLTDMGIRSLSSPSKRRSCEMIKSTPMPRLDISIPPPLTFTPKDFQSSISPSTDMIASLSIITQMTQTLKFPPQQQQDNPFSKSSIKISPSPLNSTNISIPKNQQFQHPFQIQPQLDLNLQQQQQQSSQQLNDNPPLNMSSNSIKFPPVTSLSSCHLFEDSKNNDNNNKQQQQQQQQQQKNNQQCSGFSHFLNNNNNNDNNGSSGGGFNGSFLFNSNNSGSSSTNSECSNNNKNNNNNSNNNNNNNNNKNSDNNGTKDKDENDSCESPRVTPIKCF
–	binds	GST-Phg2 (amino acids 207-1159 of Phg2) (domain or fragment, UniProt Q54QQ1 207-1159) PTGSNNIVPSNAGHSRNTSSNSNNSANTSSNNLLAHHQFNNNNNNNNNNNNNNNNNNNNNNNNNNNNNNNNNNNNNNNSNNSSNSNSNNSSNTTTTTTTTTTTTTTSTSTNSINTSNNNNNNNSGSNINPSSFISPMSSLVSLSLSSSPASSAPHSPTLSSQPSSPHTITPITTSPPPPQRNNSSKSLKSTMEMEPPAEYISLLSNNPPPTNGSGSRPPSGSFIPGSIVNGSRSSASDLIGFKPPVCQQQQQQQQQQQQQQQQQVQQQQQQPQQVQQLQQLQQLQQQYQQQQPQQQIQPLSPQQQSQQQQQSPVKQSESIPQSPNLQSITQSSSSNKPLSGSTGMNRSSSPSPFAKKNIGGGGGGGSLADRKNRLSVQPKDIMRLMRFYFGDSLDGTFFTIAVQNDTSAKDVCASVEQKLLLPSGSTFVSLVLPIQPNGSKIERVLGEDEIIIEVKDTWEDPSQTFFQVTHKQQAPNNKRLSRQIQAEPHVIPSEWRRSTDAISLRASSDDMWKRKSIPIFLQVTGPPNTHSHSHSPQRQLPNMSGSPHSHHHHQNNNNNNNNNNNNNNNNDLDDDDSDDESDFDVSTLRGWVHWIPSADLEYIKRIGSGTYSKVYKGKYRDKFVAIKTMRGSNMTTEQIESFKKECDILSTIQSPLLISFYGSCIEESQLSMVVEYCSKGTLHKVLNNPLLDFDWDKWFKWMTEVVEGVRYLHSMNPPMVHRDLKTLNILISSDWTAKLCDFGLTRTMTMTNVSTLGMLRGTMAYTAPEIYDGLLFNTKSDVYSLGVIMWEAIQRCISGVYLRPFHEHPISMDIQIIILTSKNKVRPKISENCPEQLKTLITRCWDENPDKRPNCDEILEILLTMKQAHDENKDEWESIRTKLPKQTIKAVSSSSSNNNNNNNNNNNNNNNNNNNNNNNNNNNNGTNTNSTVNNVVVPSSSNATIVVAPSVS
